According to PubChem BioAssay AID504467 (National Center for Advancing Translational Sciences (NCATS), 2011):
The whole screen tested about 330,000 compounds, of which about 7,700 (2.3%) were called active. Inconclusive means that the source gave no clear call. Such entries were picked first, then a sample of the others. The call rests on the fitted dose curve; in most records, active means well fitted inhibition curve with a large enough effect; inconclusive means small, poorly fitted or top-dose-only effect, or effect the other way; inactive means flat fitted curve, though single readings scatter. Potencies beside an inconclusive call are fits to weak or partial responses and may not hold up.

Assay: qHTS screen for small molecules that inhibit ELG1-dependent DNA repair in human embryonic kidney (HEK293T) cells expressing luciferase-tagged ELG1; further: nearly all actives have a fitted effect of over 55% in size
Conditions: HEK293T ELG1-luciferase reporter, luminescence, 16 h, DNA damage induced by 5-fluorouridine; series mostly up to 46.1 µM
Method in brief: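 Cells (2,000 per well) received 5-fluorouridine plus test compound or DMSO and were incubated 16 hr at 37 °C, 5% CO2. Luciferase activity was read by luminescence 30 min after ONE-Glo addition; signal suppression marked inhibition of damage-induced ELG1 function.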
Potency means the concentration at half of the fitted maximal effect.

| SMILES | Potency |
| --- | --- |
| COc1cc(/C=C2\SC(=O)N(CCNC(=O)c3c(C)noc3C)C2=O)cc(OC)c1OC | active: 18.3 µM |
| CCc1nnc(NC(=O)c2cc(-c3ccncc3)nc3ccccc23)s1 | inactive |
| N#Cc1nc(COc2ccccc2)oc1N1CCOCC1 | inconclusive: 29.1 µM [activator, single point] |
| COc1ccccc1N1CCN(C(=O)c2c(-c3c(Cl)cccc3Cl)noc2C)CC1 | inconclusive: 32.6 µM [inhibitor, partial curve, poor fit] |
| CC(=O)c1cc2c(cc1NC(=O)c1ccc(Cl)cc1)OCCO2 | inconclusive: 12.6 µM [activator, partial curve, poor fit] |
| Cc1ccc(-c2nc(SCC(=O)Nc3ccccc3OC(F)F)c3c(C)c(C(=O)O)sc3n2)cc1 | inconclusive: 23.1 µM [activator, partial curve] |
| Cc1ccc(NC(=O)COc2cccc(-n3cnnn3)c2)cc1S(=O)(=O)N1CCOCC1 | inconclusive: 22.4 µM [inhibitor, single point] |
| CC(=O)Nc1cc(C)c2nc(NC(C)=O)sc2c1 | inconclusive: 20.6 µM [activator, partial curve] |
| O=C(NCC(=O)N1CCCC(C(F)(F)F)C1)c1ccco1 (centres undefined) | inconclusive: 20 µM [activator, partial curve, poor fit] |
| O=C(Nc1cccc(O)c1)c1cc(-c2ccc3c(c2)OCO3)on1 | inconclusive: 2.31 µM [activator, partial curve] |
| CCC(=O)N(CC(=O)Nc1sc(C)c(C)c1C(N)=O)Cc1ccc(F)cc1 | inactive |
| Clc1ccc(-c2nnc3n2CCCCC3)cc1 | inactive |
| CCc1ccc2c(c1)C(c1ccncc1)=NNC(c1ccccc1)=N2 | inconclusive: 25.9 µM [activator, single point] |
| CCOC(=O)C1=C(C)OC(N)=C(C#N)C1c1cc2cc(C)ccc2nc1N1CCCCC1 (centres undefined) | inconclusive: 4.61 µM [activator, partial curve] |
| COc1ccc(CC(=O)NCc2ccc3c(c2)cc(C)n3C)cc1OC | inconclusive: 18.3 µM [inhibitor, single point] |
| COCc1c(C(=O)N2CCN(c3ccccc3C)CC2)oc2ccccc12 | inconclusive: 8.2 µM [inhibitor, partial curve, poor fit] |
| CCSc1ncc(/C=N/Nc2ccc([N+](=O)[O-])cc2)n1C | inconclusive: 7.31 µM [activator, partial curve] |
| Cc1cccc(C(=O)NCCN2CCCC2)c1 | inconclusive: 16.4 µM [activator, single point] |
| O=C(/C=C/c1ccccc1)NC(=S)NNC(=O)Cc1cccs1 | inactive |
| COc1cc(OC)nc(Oc2ccccc2C(=O)Oc2ccc(Cl)cc2)n1 | inactive |
| COc1cc(/C=C/C(=O)OCC(=O)Nc2ccc(Cl)cn2)ccc1O | inconclusive: 8.2 µM [inhibitor, partial curve] |
| CCOC(=O)[C@@H]1[C@H]2COc3cc(OC)ccc3[C@@H]2N2C(=O)N(c3ccc(F)cc3)C(=O)[C@@]12C | inconclusive: 23.1 µM [activator, partial curve] |
| CCC(C)(C)n1nnnc1C(c1ccc2ncccc2c1)N1CCCCCC1 (centres undefined) | inactive |

| SMILES | Potency |
| --- | --- |
| COc1ccc(C(C)NS(=O)(=O)Cc2ccccc2)cc1 (centres undefined) | inactive |
| CCN(CC)S(=O)(=O)c1ccc(OC)c(NC(=O)CSCc2c(C)noc2C)c1 | inactive |
| Cc1ccc2nc(NC(=O)CSc3nncc(=O)n3N)sc2c1 | inconclusive: 9.2 µM [activator, partial curve] |
| c1cnc2c(c1)ncc1cscc12 | inconclusive: 11.6 µM [inhibitor, partial curve] |
| COc1ccc(OC)c(C2CC(=O)Nc3n[nH]c(-c4ccccc4)c32)c1 (centres undefined) | inconclusive: 18.3 µM [activator, single point] |
| CN(C)c1ccc(/C=N/NC(=O)C(=O)N2CCCCCC2)cc1 | inconclusive: 32.6 µM [activator, partial curve, poor fit] |
| CCOC(=O)N1CCN(S(=O)(=O)c2ccc3c(c2)SC(C)C(=O)N3)CC1 (centres undefined) | inconclusive: 3.26 µM [inhibitor, partial curve] |
| COc1cccc(CNC(=O)C2CCCN(c3ncnc4c3nc3n4CCCCC3)C2)c1 (centres undefined) | active: 18.3 µM |
| O=C(CCCCn1c(=O)[nH]c2ccsc2c1=O)NCc1cccnc1 | inconclusive: 20.6 µM [activator, partial curve, poor fit] |
| COCCNC(=O)CSc1ccc(-c2nc3ccccc3[nH]2)cn1 | inactive |
| CN(C)c1ccc(-c2nnc(-c3ccccc3F)o2)cc1 | inconclusive: 4.61 µM [activator, partial curve] |
| C/C(=N\NC(=O)C(C)Nc1cccc(Cl)c1)c1ccc([N+](=O)[O-])cc1 (centres undefined) | inactive |
| O=C(Cn1cc(CCO)nn1)N1CCNCC1 | inactive |
| CCC(C)[C@H](NC(=O)C1CCN(C(=O)[C@H](Cc2ccccc2)NS(=O)(=O)c2ccc(C)cc2)CC1)C(=O)O (some centres undefined) | inactive |
| CCn1cc(S(=O)(=O)c2ccc(OC)cc2)c(=O)c2cc(OC)ccc21 | inactive |
| O=C(NCc1ccc2c(c1)OCO2)c1ccc(CS(=O)(=O)c2ccc(Br)cc2)o1 | inconclusive: 20.6 µM [inhibitor, partial curve, poor fit] |
| O=C(CCC(=O)Nc1cc(C(F)(F)F)ccc1Cl)N/N=C\c1cc([N+](=O)[O-])ccc1O | inconclusive: 16.4 µM [inhibitor, partial curve, poor fit] |
| O=C(O)COc1ccccc1/C=N/NC(=O)c1cc2ccccc2cc1O | inconclusive: 2.31 µM [inhibitor, partial curve, poor fit] |
| Cc1ccc(/C=N/NC(=O)CCn2nc(C)cc2C)c(C)c1 | inconclusive: 20.6 µM [inhibitor, single point] |
| O=C(NCCN1Cc2ccccc2C1=O)c1cccs1 | inconclusive: 20.6 µM [activator, single point] |
| CC(=O)N1CC2(NC(=O)c3ccccc3N2)c2ccccc21 (centres undefined) | inactive |
| FC(F)(F)c1ccccc1NC(=S)Nc1cccc2cnccc12 | inconclusive: 29.1 µM [inhibitor, single point] |
| CCCCC(c1nnnn1Cc1ccco1)N1CCN(C(=O)c2ccco2)CC1 (centres undefined) | inconclusive: 29.1 µM [inhibitor, single point] |

| SMILES | Potency |
| --- | --- |
| CCCn1cc(S(=O)(=O)c2ccc(C)cc2)c(=O)c2cc(OC)c(OC)cc21 | inactive |
| CCc1ccccc1NC(=O)CN1CCN(C(=O)c2ccc(OCc3cn4ccccc4n3)cc2)CC1 | active: 6.51 µM |
| COc1ccc(C(=O)COC(=O)c2ccccn2)c(OC)c1 | inconclusive: 20.6 µM [activator, single point] |
| CC(=O)N1c2ccc(S(=O)(=O)NCC3CCC(C(=O)Nc4ccc(C)cn4)CC3)cc2CC1C (centres undefined) | inconclusive: 18.3 µM [inhibitor, partial curve, poor fit] |
| Cc1cc(C)nc(SCc2cc(=O)c(OC(=O)c3ccco3)co2)n1 | inconclusive: 18.4 µM [inhibitor, partial curve, poor fit] |
| CCOCc1c(C(=O)OCC(=O)Nc2ccc(C)c(S(=O)(=O)N(C)C)c2)oc2ccccc12 | inactive |
| O=C(C1CCN(C2CCN(Cc3cccc4c3OCO4)CC2)CC1)N1CCOCC1 | inactive |
| COc1ccccc1/C=C(/C(=O)OCC(=O)NCc1ccccc1)c1ccccc1 | inconclusive: 29.1 µM [inhibitor, single point] |
| CCCOC(=O)c1ccc(NC(=O)c2cnccn2)cc1 | inconclusive: 10.3 µM [activator, partial curve] |
| Cc1ccc(CSc2nc3ncccc3[nH]2)cc1 | inconclusive: 8.2 µM [activator, partial curve] |
| Cc1cccc(NC(=S)NC2CCCCCC2)c1C | inactive |
| CC(C)NC(=S)N/N=C1\CCCCC1C1CCCCC1 (centres undefined) | inconclusive: 18.4 µM [inhibitor, partial curve, poor fit] |
| CN(C)CCCn1c(N)c(S(=O)(=O)c2ccccc2)c2nc3ccccc3nc21 | inactive |
| CCOC(=O)c1[nH]c2cc(OC)c(OC)cc2c1NC(=O)CN1CCN(c2ccc(OC)cc2)C(C)C1 (centres undefined) | active: 1.3 µM |
| CN1C(=O)c2c(sc3c2CC(C)(C)SC3)N2CCN=C12 | inactive |
| COc1cc(C(=O)NCCCN2CCCC2=O)ccc1OCc1ccc(Cl)cc1Cl | inconclusive: 6.51 µM [inhibitor, single point] |
| O=C(CSc1ccc2c(c1)OCCO2)Nc1ncccc1O | inconclusive: 10.3 µM [activator, partial curve, poor fit] |
| C=CCNC(=O)c1ccccc1NC(=O)c1ccc(Cl)c(S(=O)(=O)Nc2cc(C)ccc2C)c1 | inconclusive: 29.1 µM [inhibitor, single point] |
| CCc1ccc(C(=O)COC(=O)c2cc([N+](=O)[O-])ccc2NCCO)cc1 | active: 14.6 µM |
| CC(=O)Nc1ccc(NC2=Nc3ccccc3N3C2=Nc2c(c(C)nn2-c2ccccc2)C3c2ccccc2)cc1 (centres undefined) | active: 2.82 µM |
| Cc1ccc(-c2nn3c(C)nnc3c3ccccc23)cc1S(=O)(=O)N(C)CCO | inconclusive: 18.4 µM [activator, partial curve] |
| O=C(CNC(=O)c1ccc(S(=O)(=O)N2CCCC2)cc1)N/N=C/c1ccccc1Cl | inactive |
| CCc1c(C)c(C#N)c2nc3ccccc3n2c1Cl | inconclusive: 10.3 µM [inhibitor, partial curve, poor fit] |

A second format for 3 compounds above:
SMILES | Potency
Clc1ccc(-c2nnc3n2CCCCC3)cc1 | inactive
CCc1ccc2c(c1)C(c1ccncc1)=NNC(c1ccccc1)=N2 | inconclusive: 25.9 µM [activator, single point]
CCOC(=O)C1=C(C)OC(N)=C(C#N)C1c1cc2cc(C)ccc2nc1N1CCCCC1 (centres undefined) | inconclusive: 4.61 µM [activator, partial curve]
